Reference: paper PMC11962113, “An unusual glycerol-3-phosphate dehydrogenase in Sulfolobus acidocaldarius elucidates the diversity of glycerol metabolism across Archaea” (Communications Biology, 2025)
Results are given in words; binding and its absence hold for the method and conditions named. In cells and extracts the contact can be indirect. Here binding means that the protein was enriched with, or labelled near, the bait; the list need not be complete. Tags and fused reporters may be left off the sequences shown.

T1: CoxG homologue Saci_1119, C-terminally HA-tagged (S. acidocaldarius DSM 639) (UniProt Q4J9R0)
T1 sequence: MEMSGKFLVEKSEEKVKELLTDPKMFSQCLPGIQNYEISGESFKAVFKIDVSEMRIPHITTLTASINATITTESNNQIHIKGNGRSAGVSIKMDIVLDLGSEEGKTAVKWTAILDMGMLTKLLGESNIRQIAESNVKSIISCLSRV

T2: CoxG homologue Saci_2031, C-terminally HA-tagged (S. acidocaldarius DSM 639) (UniProt Q4J7A4)
T2 sequence: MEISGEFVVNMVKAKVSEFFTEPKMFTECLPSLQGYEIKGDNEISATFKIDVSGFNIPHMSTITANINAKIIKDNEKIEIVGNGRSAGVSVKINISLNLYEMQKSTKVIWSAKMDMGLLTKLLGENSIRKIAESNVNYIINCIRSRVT


Experiments:
[1] = target: T1, CoxG homologue Saci_1119, C-terminally HA-tagged (S. acidocaldarius DSM 639); assay: affinity purification with mass spectrometry; co-IP of C-terminally HA-tagged CoxG from S. acidocaldarius MW00G lysate (25 mM TRIS-HCl pH 7, 150 mM KCl, 5% glycerol, 10 mM EDTA, 2% DDM) with anti-HA magnetic beads, 1 h at room temperature; on-bead digestion, LC-MS/MS, LFQ
[2] = target: T2, CoxG homologue Saci_2031, C-terminally HA-tagged (S. acidocaldarius DSM 639); assay: as above

| binding [1] | binding [2] | Binder |
| --- | --- | --- |
| binds |  | glycerol-3-phosphate dehydrogenase Saci_1118 (endogenous) (enzyme, UniProt Q4J9Q8 1-428) MKQNSSVIVIGGGATGLFTALDLSLRGINVTLVERGDIASGTSGKFHGLLHSGARYAVNDPESAKECKQENEVLSKIAPEFVRDTGGVFVGITEDDVNYSQRFLSALNSLGITNKVMDVEELIRREPFINKKSKIAIWVPDKVVYGYDLLATVALTASLNGAKILTYNEVKRVLREGNSVRRVEVKDNISGETKILNGDIIVNTAGPWAFRVIEMAGLGEIPLLPTAGIMVVMKEKLNSMVINRLRPPSDGDIIVPYGDSSIIGTTATIIPDPDNFEISDEDINMLIEEGAYMIPRLKEVKPERAYASVRPLIKNAEDGRGATRDFMIIDHEKVDSLDGLISVIGGKFTTSRLAGEKVSDMVSEKLGIREKSKTATIKLMSELDEKLLEKKRVPKVLVKMIRERKGSLDEDRYSTAMYILLSLLARGE |
|  | binds | glycerol-3-phosphate dehydrogenase Saci_2032 (endogenous) (enzyme, UniProt Q4J7A2 1-431) MEIKTSVLVIGGGANGLFTALDLALRGIDVTLVERRDIGSGTSGRFHGLLHSGARYAVTDPESAKECIQENNIISKIAPHAIRDTGGLFLGITKEDLEFLDKFLSSLKKLGIEHKIVDNNQVLQEEPYVNKDLKIAIWVPDKVVYGYDLLSSIAVTGSLNKARIMTYNEVTEFIRDGNSIKGVKVFDKITNQMNLIKSDIIINTSGPWAFKIITMAGLEEIPILPTAGIMAVFGKKVNNAVLNRLRPPSDGDIIVPYQDTSILGTTATIIEDPDNFTISDEDVKMLIKEGSQLVPELSKTRVIRTYASVRPLMRTSEDGRKASRDFTILDHEREDGVSGLISIIGGKFTTSRLVGEKVGDLVSEKLGVRAKSKTKETKLISPSEIDFEKYLEKIGISKIFLKSVMERRGSLDEERYKTVLYLLLSLIARGR |
